The list shows a part of the results.
B1: il10ra_site1_sap_12_mot_HHH_b2_03328_af2_000000127_0001_1_19_H_._HHH_b2_04442_0001_0000600053_0000001_0_0001 (protein)
chain: SSSSDDYEHAKKLIEEAAELQRQGNPEEAERVLEELEEFLEERNDLVTLWAVRHLLELIRRSSSS
B2: il10ra_site1_sap_19_mot_HHH_b2_06480_af2_000000075_0001_1_18_H_._HHH_b1_01541_af2_0001_0000200015_0000002_0_0001 (protein)
chain: SSSSDEELREEAEELLEKLKELNAQERFELLKEVIELAHEHNDPEVFRLVMEAIKEFIERSSSSS
B3: il10ra_site1_sap_20_mot_126ace9b790e630c13bc3545a3f0f279_0001_af2_000000183_0001_15_29_H_._HHH_b1_06895_0001_0000200006_0000001_0_0001 (protein)
chain: SSSSDEEDEEVLRLSREAFRLALRGNPEEARRVLEEAIEIAREIGNERALEMLERLLETQSSSSS
B4: il10ra_site1_normal_mot_8756ee2cf497b5429c717dfc0c0bcfd6_0001_000000186_0001_1_13_H_._HHH_b1_02515_0001_0000400033_0000001_0 (protein)
chain: SSSSSDASRELYELLREIVELIHEGDPEEARELIREAEELAEEAGNDVFLAQLEYLLRHISSSSS
B5: il10ra_site1_normal_mot_HHH_b1_00992_000000182_0001_23_40_H_._HHH_b2_04876_af2_0001_0001000030_0000001_0 (protein)
chain: SSSSDEEDERYVRLAIKFARFLFEAGDPEAARRILRAAIDVARRSGNPELVRELEELLEELSSSS
B6: il10ra_site1_sap_22_mot_HHH_b2_05111_af2_000000002_0001_42_56_H_._HHH_b2_01154_0001_0000300021_0000002_0_0001_af2pred_0001 (protein)
chain: SSSSSLIQQLLELLKRIIELLREGNPEEARELLEEAKELAEEAGNELVRLRLEFLERLVNSSSSS
B7: il10ra_site1_sap_27_mot_HHH_b1_06816_000000239_0001_1_19_H_._HHH_b1_03766_af2_0001_0000200012_0000001_0_0001_af2pred_0001 (protein)
chain: SSSSDEEEIERKVEELLEEAKHIEDPDELSYVLIRAYALANRGNDPELKRLVREVAQKLISSSSS
B8: il10ra_site1_normal_mot_HHH_b2_03220_af2_000000223_0001_23_40_H_._HHH_b1_07441_af2_0001_0000300030_0000002_0 (protein)
chain: SSSSSREANEQVWELIRRALELAANGNPEEAEKLLEEAERLAEENNNRVFLIQIEYLERQLSSSS
B9: il10ra_site1_sap_18_mot_HHH_b2_00816_af2_000000077_0001_1_19_H_._HHH_b1_04432_af2_0001_0000400023_0000001_1_0001_af2pred_0001 (protein)
chain: SSSSSSEEHARKSARFLLEAAKQLDDDEAVRRTLREAKHAAESVNDEELKEEIEEVIEELSSSSS
B10: il10ra_site1_normal_mot_HHH_b2_03434_000000017_0001_1_19_H_._HHH_b2_02344_0001_0000500077_0000001_0 (protein)
chain: SSSSSEHDELYELARRLIELAFEGDEEEVERLAEEAKELAKELNNEVLLRVIEWALRMHNSSSSS
B11: il10ra_site1_normal_mot_HHH_b1_05357_000000034_0001_23_39_H_._ems_3hC_894_0002_af2_0001_0000300010_0000002_0_af2pred_0001 (protein)
chain: SDLEARVAHLIIVIFALAHEKQDPRLEELAKELARLAVEAAIHNDEEKLEEVEERAREVVESGSS
B12: il10ra_site1_sap_10_mot_9de44d9dbda350e72dbd1fc967c0af38_0001_000000021_0001_54_65_H_._HHH_b2_06051_0002_0000100004_0000002_0_0001 (protein)
chain: SSSSDEEREIAEKAVRHFLKAAKRADEEYRELTLRFAKWTAEAVNDEELRKLVEEVEEELSSSSS
B13: il10ra_site1_sap_18_mot_HHH_b1_04771_000000013_0001_40_56_H_._HHH_b1_07552_0001_0000300030_0000001_0_0001 (protein)
chain: SSSSDEEREEALRLSLRIFHALLRGNEEEARELLEELKELAERLNDPRLEWAVESLKEAISSSSS
B14: il10ra_site1_normal_mot_8756ee2cf497b5429c717dfc0c0bcfd6_0001_000000186_0001_1_13_H_._HHH_b1_03452_af2_0001_0000100005_0000001_0 (protein)
chain: SSSSDAQEVVELLREAAELDSEGNPEEAEEVVERARELAEELNNDVLLATARYLERLIRSSSSSS
B15: il10ra_site1_normal_mot_HHH_b2_06857_af2_000000179_0001_42_54_H_._HHH_b2_07980_af2_0001_0000400035_0000002_0 (protein)
chain: SSSSSSSEAIERAIKLLRRAAQIEDEEEVEELLEEAKKLAEEAGNELLAWQIEFLERMLSSSSSS
B16: il10ra_site1_sap_24_mot_HHH_b2_02497_000000141_0001_1_20_H_._HHH_b2_04513_0001_0000100005_0000002_0_0001_af2pred_0001 (protein)
chain: SSSSEEAEELVKEVEEELRRLLEEGNYEEAFRLLREAIRRLIELGDPEAARELSELFLRLASSSS
B17: il10ra_site1_normal_mot_HHH_b2_07784_af2_000000103_0001_19_36_H_._HHH_b1_08449_af2_0001_0000600026_0000002_0 (protein)
chain: SSSSDEHYEKLKELIERIVEALRRNDPEKVEELLRELEELIEEYNNNAAKFALEQLERVLSSSSS
B18: il10ra_site1_normal_mot_HHH_b2_03220_af2_000000223_0001_23_40_H_._HHH_b1_02879_af2_0001_0000100007_0000001_0 (protein)
chain: SSSSDELAEEVWRLLREALQLLEEGNPEEAQEVVERALELAEEAGNELLAIQARFLLRQIESSSS
B19: il10ra_site1_sap_24_mot_HHH_b1_04177_000000174_0001_1_19_H_._HHH_b1_03006_0001_0000300020_0000001_0_0001 (protein)
chain: SSSSSHEEVYELLRRIAELDHDGDQERARELLEEAQEIAEEAGNVLFLWQLEYLQRLLEEHSSSS
B20: il10ra_site1_normal_mot_HHH_b1_05185_000000011_0001_22_39_H_._HHH_b2_07997_0001_0000900026_0000001_0 (protein)
chain: SSSSSDTEKEASEVFVRATRARWEGDEEQAKELLRELEEIAEEGNSEYARLSVRFLQALLSSSSS
B21: il10ra_site1_sap_18_mot_HHH_b1_01011_000000096_0001_1_19_H_._HHH_b1_06403_0001_0000300021_0000001_0_0001 (protein)
chain: SSSSSDEEELEELLEELERLVREGDFERALELAQEIIRLAFRLSDEEALRRLWELLRELVSSSSS
B22: il10ra_site1_normal_mot_HHH_b2_08186_000000021_0001_43_56_H_._HHH_b2_06600_af2_0001_0000100009_0000001_1 (protein)
chain: SSSSSDEELEELLKELKEALERGDQELFLRLLQEALRLAFRLNDEEALQELWELLRELVNSSSSS
B23: il10ra_site1_sap_20_mot_HHH_b2_00984_000000042_0001_1_20_H_._ems_3hC_696_af2_0001_0000100003_0000002_0_0001_af2pred_0001 (protein)
chain: SSSSDMEELERLSREALRLLKEGNPEEAQKVVEEAEELARELNNLNARAVIEYLARLIERSSSSS
B24: il10ra_site1_normal_mot_2c1a291787c6f40772924d4e9068d803_0001_af2_000000187_0001_34_48_H_._HHH_b2_03338_0002_0000400034_0000001_0 (protein)
chain: SSSSDEDEELVERLLEEAKESDDEKERFELSAEAYLVADESNNDELRRLIIEVNAELAQKSSSSS
B25: il10ra_site1_normal_mot_HHH_b2_00984_000000042_0001_1_20_H_._HHH_b2_07840_0001_0000100001_0000001_0 (protein)
chain: SSSSSSDLEELTEELREAVEEGDTELASQIAQEAVRLAIRLSDQEALQELWELIRLVASSSSSSS
B26: il10ra_site1_sap_11_mot_HHH_b1_05357_000000034_0001_23_39_H_._HHH_b2_02685_0001_0000300029_0000002_0_0001_af2pred_0001 (protein)
chain: SSSSDELELSVRMALLSARLAAELGDPELAEAAIRDAKVAAKYNNNEELRKEIEELEEEIRSSSS
B27: il10ra_site1_sap_16_mot_HHH_b2_05009_af2_000000250_0001_40_57_H_._2bb1a06cad284b560c121c567ec17a85_0001_0001_0000800016_0000002_0_0001 (protein)
chain: SSSSSDKRERLLRLVLELARAFIRGDEELIKELLEEVEEIAEELNDERVLKMLEDLKKALSSSSS
B28: il10ra_site1_normal_mot_HHH_b1_05937_af2_000000262_0001_20_37_H_._HHH_b2_04780_af2_0001_0000400025_0000002_0 (protein)
chain: SSSSDEEEEELERLKEEIEEAIKKNDEELALRLIIELLRLAFRARDPEAVKAAWELAKLIESSSS
B29: il10ra_site1_sap_14_mot_HHH_b1_02492_000000051_0001_1_21_H_._HHH_b2_05983_0001_0000300015_0000001_0_0001_af2pred_0001 (protein)
chain: SSSSDEEEEIEELFEEARKLLEEGDDEEALRVLRELVRLAFRTGDPEATRLALELAELLKGSSSS
B30: il10ra_site1_normal_mot_HHH_b2_03495_af2_000000088_0001_20_36_H_._HHH_b1_05664_0001_0000100005_0000001_0 (protein)
chain: SSSSDEEVQEYVEEVEEQLRELAKKNPEEFSQLLFEATRFVWERNDKEALALLNKLALELKSSSS
B31: il10ra_site1_sap_17_mot_ems_3hM_2400_000000184_0001_1_19_H_._HHH_b2_02810_0001_0000100004_0000001_0_0001_af2pred_0001 (protein)
chain: SSSSSEEKLEAAIKFIEWLIEAGDPEAARLLAEIALELARDLNDEEVEERVRELLREIEENSSSS
B32: il10ra_site1_normal_mot_HHH_b1_03754_af2_000000016_0001_40_56_H_._HHH_b2_05518_0001_0000600049_0000001_0_af2pred_dldesign_0_af2pred (protein)
chain: SSSSSPEKEALERALKYLEFLKEAGDLEAATRHARALLALAKKWKDEETIKRVEALLKELSSSSS
B33: il10ra_site1_normal_mot_HHH_b1_03900_000000129_0001_1_16_H_._HHH_b1_05120_af2_0001_0001200013_0000001_0 (protein)
chain: SSSSDEEEIYELIKELARLLIRNDPERAEELLEELRELAEKLNDPAVERAVEILEEALEATSSSS
B34: il10ra_site1_normal_mot_HHH_b2_04680_000000215_0001_1_16_H_._HHH_b2_04874_af2_0001_0000100001_0000002_0 (protein)
chain: SSSSSSHELTREAYELLREAFEIPDEEEVEKLLEEALQLAEEANNFALAFAIRLALKSLESSSSS
B35: il10ra_site1_sap_13_mot_HHH_b2_00564_af2_000000012_0001_18_34_H_._HHH_b2_04461_af2_0001_0000500018_0000001_0_0001_af2pred_0001 (protein)
chain: SSSSDKEQEEEFEQLTERAEELGDKSTAWLIELALEAYRITNDERALEIARRLLRLAEEESSSSS
B36: il10ra_site1_sap_24_mot_HHH_b2_02354_af2_000000157_0001_40_56_H_._HHH_b2_02898_af2_0001_0000900025_0000001_0_0001 (protein)
chain: SSSSSEEERYAELSLMFARQLIEAGSEEAAREFIRIAIDVVKRLNDPEVAEQLEELLEELSSSSS
B37: il10ra_site1_normal_mot_b26a303360aa2756ef5b79665ce52f45_0001_000000179_0001_1_11_H_._HHH_b1_01396_0001_0000100005_0000001_0 (protein)
chain: SSSSSSDEENRRIIELIRKAAHIDDPEEAREILEEAIELAEEANNPVLLFSAEHLLRADSSSSSS

molecular target: il10ra, Q13651; experiment: yeast display titration

Apparent Kd, inactive:
B1 no binding seen
B2 no binding seen
B3 no binding seen
B4 no binding seen
B5 no binding seen
B6 no binding seen
B7 no binding seen
B8 no binding seen
B9 no binding seen
B10 no binding seen
B11 no binding seen
B12 no binding seen
B13 no binding seen
B14 no binding seen
B15 no binding seen
B16 no binding seen
B17 > 1370 nM
B18 no binding seen
B19 no binding seen
B20 no binding seen
B21 no binding seen
B22 no binding seen
B23 no binding seen
B24 no binding seen
B25 no binding seen
B26 no binding seen
B27 no binding seen
B28 no binding seen
B29 no binding seen
B30 no binding seen
B31 no binding seen
B32 no binding seen
B33 no binding seen
B34 no binding seen
B35 no binding seen
B36 no binding seen
B37 no binding seen

Taken from the entries so far for reference:
Apparent Kd, inactive:
B28 no binding seen
B29 no binding seen

From article PMC10163288
